Measurements reported in PubChem BioAssay AID1259405 (NCATS, 2018).
This is one part, drawn at random, of about 50,000 reagents tested. About 4,000 of them (8%) were called active. 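Mouse siRNA library applied to hamster cells; one well for each siRNA.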 Reagents against one gene are numbered here.

Aim: 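Silenced genes that increase secreted GFP made by CHO cells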 (primary screen)
System: Chinese hamster CHO-K1 ovary cells with stable secreted eGFP expression
Knock-down reagent: single siRNA against mouse genes, 0.8 pmol siRNA per well (2 µl of 400 nM stock)
Time to read-out: 3 days
Detection: 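Percent of the per-plate non-targeting control median for intracellular GFP per well by laser scanning cytometry and for cell viability by ATP luminescence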
Scale: GFP, % of control: higher = more GFP per well, higher productivity; viability (ATP), % of control: higher = more viable cells (more ATP)
Active means: 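Called active when intracellular GFP, relative to negative control, is at or above 120%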

Pcyt1a #1 showed GFP, % of control 109; viability (ATP), % of control 103; inactive.
Pcyt1a #2 gave GFP, % of control 112; viability (ATP), % of control 118; inactive.
Against Pcyt1a #3, the entry reads GFP, % of control 118; viability (ATP), % of control 113; inactive.
Against Slc36a4 #1, the values are GFP, % of control 49.2; viability (ATP), % of control 68.3; inactive.
After knock-down of Slc36a4 #2, the record shows GFP, % of control 51.9; viability (ATP), % of control 65.5; inactive.
Slc36a4 #3 showed GFP, % of control 68.5; viability (ATP), % of control 75.7; inactive.
After knock-down of Ddx24 #1, the record shows GFP, % of control 89.4; viability (ATP), % of control 47.4; inactive.
Ddx24 #2 scored GFP, % of control 76.4; viability (ATP), % of control 59; inactive.
After knock-down of Ddx24 #3, the screen gave GFP, % of control 82.7; viability (ATP), % of control 55.6; inactive.
Sigmar1 #1 scored GFP, % of control 32.5; viability (ATP), % of control 67.6; inactive.
Against Sigmar1 #2 the deposit lists GFP, % of control 37; viability (ATP), % of control 22.6; inactive.
With knock-down of Tmem178b #1, the screen gave GFP, % of control 50.7; viability (ATP), % of control 62.4; inactive.
Silencing of Tmem178b #2 came out at: GFP, % of control 93.9; viability (ATP), % of control 81; inactive.
Against Tmem178b #3, the values are GFP, % of control 103; viability (ATP), % of control 102; inactive.
Depletion of Jph3 #1 came out at: GFP, % of control 41.4; viability (ATP), % of control 64.6; inactive.
For Jph3 #2, the values are GFP, % of control 67.8; viability (ATP), % of control 66.7; inactive.
Jph3 #3 scored GFP, % of control 92.2; viability (ATP), % of control 34.6; inactive.

Entries listed so far whose target name starts with S or s (5):
Slc36a4 #1 | GFP, % of control: 49.2; viability (ATP), % of control: 68.3; call: inactive
Slc36a4 #2 | GFP, % of control: 51.9; viability (ATP), % of control: 65.5; call: inactive
Slc36a4 #3 | GFP, % of control: 68.5; viability (ATP), % of control: 75.7; call: inactive
Sigmar1 #1 | GFP, % of control: 32.5; viability (ATP), % of control: 67.6; call: inactive
Sigmar1 #2 | GFP, % of control: 37; viability (ATP), % of control: 22.6; call: inactive

The list goes on.
Rps21 #1 gave GFP, % of control 75.5; viability (ATP), % of control 59.8; inactive.
Knock-down of Rps21 #2 gave: GFP, % of control 64.5; viability (ATP), % of control 29.1; inactive.
Rps21 #3 scored GFP, % of control 51; viability (ATP), % of control 60.7; inactive.
With knock-down of Fem1b #1 the results were GFP, % of control 47.9; viability (ATP), % of control 83.4; inactive.
Knock-down of Fem1b #2 gave: GFP, % of control 104; viability (ATP), % of control 97.8; inactive.
Knock-down of Fem1b #3 gave: GFP, % of control 91; viability (ATP), % of control 72.5; inactive.
With knock-down of Wfdc6b #1, the record shows GFP, % of control 65.1; viability (ATP), % of control 39.2; inactive.
Wfdc6b #2 gave GFP, % of control 90.5; viability (ATP), % of control 71.3; inactive.
Wfdc6b #3 scored GFP, % of control 91.6; viability (ATP), % of control 101; inactive.
Against Trap1 #1 the deposit lists GFP, % of control 103; viability (ATP), % of control 113; inactive.
Depletion of Trap1 #2 gave: GFP, % of control 83.9; viability (ATP), % of control 79.4; inactive.
